Experimental data: article PMC10850816

Target: T1, FLAG-FERM-JAK2 (45 kDa JAK2 variant) (human) (UniProt O60674)
T1 sequence: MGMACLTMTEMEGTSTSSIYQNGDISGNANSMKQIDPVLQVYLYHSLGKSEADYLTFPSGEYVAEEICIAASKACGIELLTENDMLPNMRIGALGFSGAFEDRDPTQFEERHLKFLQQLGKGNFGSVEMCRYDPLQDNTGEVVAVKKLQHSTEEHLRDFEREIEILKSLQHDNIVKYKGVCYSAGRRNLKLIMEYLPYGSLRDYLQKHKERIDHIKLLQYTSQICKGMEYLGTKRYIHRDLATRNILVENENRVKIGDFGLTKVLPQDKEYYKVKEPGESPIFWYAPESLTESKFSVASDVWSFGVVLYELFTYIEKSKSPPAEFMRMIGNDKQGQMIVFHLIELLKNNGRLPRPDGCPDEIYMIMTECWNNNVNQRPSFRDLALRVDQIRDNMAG
Test: co-IP; FLAG immunoprecipitation from Ba/F3 cells expressing FLAG-FERM-JAK2 or FLAG-JAK2-V617F, immunoblot (Fig. 3A)

- binding: binds
Substance: STAT5 (endogenous in Ba/F3 cells) (mouse (endogenous in Ba/F3))

These are yes or no findings as the source states them, for the method shown. Binding seen in cells or lysates may run through a third protein. Binding calls can cover weak binding; strength is not graded here. Sequences can lack the tags named with a protein.
